Data: publication PMC5825117

Target: T1, FLAG-Su(Hw)^+ expressed in S2 cells (Drosophila) (UniProt P08970)
T1 sequence: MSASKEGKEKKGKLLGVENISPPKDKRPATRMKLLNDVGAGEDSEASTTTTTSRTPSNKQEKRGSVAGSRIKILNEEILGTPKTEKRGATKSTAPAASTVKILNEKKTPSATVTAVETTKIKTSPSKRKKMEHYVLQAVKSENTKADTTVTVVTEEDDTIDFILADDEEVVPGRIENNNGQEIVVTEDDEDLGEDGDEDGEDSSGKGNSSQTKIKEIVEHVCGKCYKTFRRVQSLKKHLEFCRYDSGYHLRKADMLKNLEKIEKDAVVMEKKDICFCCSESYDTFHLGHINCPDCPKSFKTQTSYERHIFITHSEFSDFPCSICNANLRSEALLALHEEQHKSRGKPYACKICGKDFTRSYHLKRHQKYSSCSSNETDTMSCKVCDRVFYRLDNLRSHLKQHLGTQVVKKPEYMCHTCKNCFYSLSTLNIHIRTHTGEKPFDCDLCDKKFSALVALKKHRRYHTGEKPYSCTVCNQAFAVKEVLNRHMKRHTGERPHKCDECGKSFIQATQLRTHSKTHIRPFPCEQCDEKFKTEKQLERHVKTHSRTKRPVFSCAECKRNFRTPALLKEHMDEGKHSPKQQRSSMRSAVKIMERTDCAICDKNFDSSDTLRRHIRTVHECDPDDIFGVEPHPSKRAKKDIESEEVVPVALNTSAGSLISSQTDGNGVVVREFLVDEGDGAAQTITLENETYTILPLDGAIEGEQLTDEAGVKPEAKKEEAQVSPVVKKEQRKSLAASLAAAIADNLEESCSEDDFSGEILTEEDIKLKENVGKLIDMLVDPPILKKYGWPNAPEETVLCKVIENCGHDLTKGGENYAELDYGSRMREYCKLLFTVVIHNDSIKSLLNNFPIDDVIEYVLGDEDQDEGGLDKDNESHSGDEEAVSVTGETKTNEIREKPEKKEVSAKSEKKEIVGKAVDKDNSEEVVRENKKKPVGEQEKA
Test: co-IP; S2 cells transfected with triple-FLAG Su(Hw) variants; lysis buffer with 450 mM NaCl and DNase I, diluted; FLAG Sepharose beads overnight at 4°C; washes with 150 mM NaCl; blots for the endogenous proteins

“Skeletor protein (S2 cells) (Drosophila (endogenous in S2 cells))” was tested, and the binding was “no binding”.

These are yes or no findings as the source states them, for the method shown. Binding seen in cells or lysates may run through a third protein. Tags and fused reporters may be left off the sequences shown.
